The values that follow come from article PMC10711657.

Amino acid sequences for entries named in this document (tags omitted). A change or cut given only in a name is not applied to a line headed by its entry.
UniProt O88398: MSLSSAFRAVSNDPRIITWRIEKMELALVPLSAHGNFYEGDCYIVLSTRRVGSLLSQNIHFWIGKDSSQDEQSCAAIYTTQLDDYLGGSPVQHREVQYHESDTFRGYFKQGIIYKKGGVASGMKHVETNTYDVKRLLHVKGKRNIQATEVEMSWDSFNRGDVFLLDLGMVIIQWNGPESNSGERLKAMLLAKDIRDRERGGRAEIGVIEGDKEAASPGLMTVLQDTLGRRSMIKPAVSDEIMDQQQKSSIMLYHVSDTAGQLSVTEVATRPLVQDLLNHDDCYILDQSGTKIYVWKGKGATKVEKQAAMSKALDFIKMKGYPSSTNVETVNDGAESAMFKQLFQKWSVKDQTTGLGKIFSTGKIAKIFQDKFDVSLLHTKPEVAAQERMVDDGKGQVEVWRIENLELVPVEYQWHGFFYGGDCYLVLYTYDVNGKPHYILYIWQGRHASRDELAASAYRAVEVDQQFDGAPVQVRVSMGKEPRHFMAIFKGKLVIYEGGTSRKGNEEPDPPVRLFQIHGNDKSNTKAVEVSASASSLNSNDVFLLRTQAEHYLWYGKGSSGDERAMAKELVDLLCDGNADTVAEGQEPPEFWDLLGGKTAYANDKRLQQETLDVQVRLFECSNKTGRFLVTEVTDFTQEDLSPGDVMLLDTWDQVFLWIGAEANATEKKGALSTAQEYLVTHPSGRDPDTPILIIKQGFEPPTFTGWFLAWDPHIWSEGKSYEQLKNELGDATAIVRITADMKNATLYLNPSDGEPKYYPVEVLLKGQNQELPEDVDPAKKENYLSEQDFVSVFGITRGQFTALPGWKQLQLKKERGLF
UniProt Q9D898: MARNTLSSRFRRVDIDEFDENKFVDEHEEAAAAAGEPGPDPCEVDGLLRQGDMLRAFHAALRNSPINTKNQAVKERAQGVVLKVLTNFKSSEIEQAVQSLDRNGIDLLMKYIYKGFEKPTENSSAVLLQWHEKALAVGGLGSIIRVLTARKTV
UniProt O08638: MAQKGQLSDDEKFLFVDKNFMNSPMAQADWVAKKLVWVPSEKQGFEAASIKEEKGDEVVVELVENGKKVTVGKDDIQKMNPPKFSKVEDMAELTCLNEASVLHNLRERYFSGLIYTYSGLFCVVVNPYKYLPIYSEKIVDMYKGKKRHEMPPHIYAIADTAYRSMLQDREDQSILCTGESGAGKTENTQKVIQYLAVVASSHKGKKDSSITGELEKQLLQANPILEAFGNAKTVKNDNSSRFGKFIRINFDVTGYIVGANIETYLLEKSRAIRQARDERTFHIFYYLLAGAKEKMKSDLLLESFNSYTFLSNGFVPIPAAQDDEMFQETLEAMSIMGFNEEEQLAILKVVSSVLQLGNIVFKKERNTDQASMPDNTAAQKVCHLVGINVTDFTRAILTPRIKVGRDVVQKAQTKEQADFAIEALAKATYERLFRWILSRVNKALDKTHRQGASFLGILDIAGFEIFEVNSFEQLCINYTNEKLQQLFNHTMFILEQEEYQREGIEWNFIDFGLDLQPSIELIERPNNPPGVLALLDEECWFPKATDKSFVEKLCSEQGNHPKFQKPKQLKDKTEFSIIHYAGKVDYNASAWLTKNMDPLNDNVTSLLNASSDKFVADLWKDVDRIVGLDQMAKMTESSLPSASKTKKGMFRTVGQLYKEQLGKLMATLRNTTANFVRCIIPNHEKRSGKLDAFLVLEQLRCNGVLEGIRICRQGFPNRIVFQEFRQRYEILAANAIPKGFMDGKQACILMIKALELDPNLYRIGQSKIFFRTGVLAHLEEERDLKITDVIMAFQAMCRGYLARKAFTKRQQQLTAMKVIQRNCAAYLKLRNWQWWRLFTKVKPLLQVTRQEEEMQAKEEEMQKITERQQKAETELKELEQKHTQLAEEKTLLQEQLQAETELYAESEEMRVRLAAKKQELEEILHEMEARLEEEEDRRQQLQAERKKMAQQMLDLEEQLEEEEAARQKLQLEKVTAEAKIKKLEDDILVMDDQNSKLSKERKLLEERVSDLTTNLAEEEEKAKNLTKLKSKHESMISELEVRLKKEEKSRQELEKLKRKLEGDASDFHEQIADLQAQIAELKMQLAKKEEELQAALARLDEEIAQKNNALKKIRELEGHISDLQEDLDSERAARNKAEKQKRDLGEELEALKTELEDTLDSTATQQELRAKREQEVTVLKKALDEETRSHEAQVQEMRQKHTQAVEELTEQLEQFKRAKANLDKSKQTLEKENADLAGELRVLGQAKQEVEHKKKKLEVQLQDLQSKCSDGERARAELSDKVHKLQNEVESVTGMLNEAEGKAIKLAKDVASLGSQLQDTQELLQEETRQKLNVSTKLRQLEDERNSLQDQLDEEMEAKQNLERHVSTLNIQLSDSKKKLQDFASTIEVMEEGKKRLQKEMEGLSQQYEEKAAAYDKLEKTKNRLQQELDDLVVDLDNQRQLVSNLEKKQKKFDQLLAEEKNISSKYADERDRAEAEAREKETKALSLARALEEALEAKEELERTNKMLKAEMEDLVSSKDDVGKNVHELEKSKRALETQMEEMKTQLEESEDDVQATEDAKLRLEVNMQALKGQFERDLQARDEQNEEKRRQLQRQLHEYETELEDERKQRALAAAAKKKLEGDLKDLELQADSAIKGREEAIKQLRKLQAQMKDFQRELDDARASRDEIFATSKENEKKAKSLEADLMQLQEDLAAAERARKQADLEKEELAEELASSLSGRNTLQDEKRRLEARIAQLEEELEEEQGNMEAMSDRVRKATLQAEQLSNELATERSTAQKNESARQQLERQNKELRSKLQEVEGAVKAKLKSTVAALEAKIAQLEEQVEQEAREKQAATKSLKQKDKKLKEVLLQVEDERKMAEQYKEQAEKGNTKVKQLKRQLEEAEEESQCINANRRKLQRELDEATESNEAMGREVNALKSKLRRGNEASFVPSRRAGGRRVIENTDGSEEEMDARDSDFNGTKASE
UniProt P21271: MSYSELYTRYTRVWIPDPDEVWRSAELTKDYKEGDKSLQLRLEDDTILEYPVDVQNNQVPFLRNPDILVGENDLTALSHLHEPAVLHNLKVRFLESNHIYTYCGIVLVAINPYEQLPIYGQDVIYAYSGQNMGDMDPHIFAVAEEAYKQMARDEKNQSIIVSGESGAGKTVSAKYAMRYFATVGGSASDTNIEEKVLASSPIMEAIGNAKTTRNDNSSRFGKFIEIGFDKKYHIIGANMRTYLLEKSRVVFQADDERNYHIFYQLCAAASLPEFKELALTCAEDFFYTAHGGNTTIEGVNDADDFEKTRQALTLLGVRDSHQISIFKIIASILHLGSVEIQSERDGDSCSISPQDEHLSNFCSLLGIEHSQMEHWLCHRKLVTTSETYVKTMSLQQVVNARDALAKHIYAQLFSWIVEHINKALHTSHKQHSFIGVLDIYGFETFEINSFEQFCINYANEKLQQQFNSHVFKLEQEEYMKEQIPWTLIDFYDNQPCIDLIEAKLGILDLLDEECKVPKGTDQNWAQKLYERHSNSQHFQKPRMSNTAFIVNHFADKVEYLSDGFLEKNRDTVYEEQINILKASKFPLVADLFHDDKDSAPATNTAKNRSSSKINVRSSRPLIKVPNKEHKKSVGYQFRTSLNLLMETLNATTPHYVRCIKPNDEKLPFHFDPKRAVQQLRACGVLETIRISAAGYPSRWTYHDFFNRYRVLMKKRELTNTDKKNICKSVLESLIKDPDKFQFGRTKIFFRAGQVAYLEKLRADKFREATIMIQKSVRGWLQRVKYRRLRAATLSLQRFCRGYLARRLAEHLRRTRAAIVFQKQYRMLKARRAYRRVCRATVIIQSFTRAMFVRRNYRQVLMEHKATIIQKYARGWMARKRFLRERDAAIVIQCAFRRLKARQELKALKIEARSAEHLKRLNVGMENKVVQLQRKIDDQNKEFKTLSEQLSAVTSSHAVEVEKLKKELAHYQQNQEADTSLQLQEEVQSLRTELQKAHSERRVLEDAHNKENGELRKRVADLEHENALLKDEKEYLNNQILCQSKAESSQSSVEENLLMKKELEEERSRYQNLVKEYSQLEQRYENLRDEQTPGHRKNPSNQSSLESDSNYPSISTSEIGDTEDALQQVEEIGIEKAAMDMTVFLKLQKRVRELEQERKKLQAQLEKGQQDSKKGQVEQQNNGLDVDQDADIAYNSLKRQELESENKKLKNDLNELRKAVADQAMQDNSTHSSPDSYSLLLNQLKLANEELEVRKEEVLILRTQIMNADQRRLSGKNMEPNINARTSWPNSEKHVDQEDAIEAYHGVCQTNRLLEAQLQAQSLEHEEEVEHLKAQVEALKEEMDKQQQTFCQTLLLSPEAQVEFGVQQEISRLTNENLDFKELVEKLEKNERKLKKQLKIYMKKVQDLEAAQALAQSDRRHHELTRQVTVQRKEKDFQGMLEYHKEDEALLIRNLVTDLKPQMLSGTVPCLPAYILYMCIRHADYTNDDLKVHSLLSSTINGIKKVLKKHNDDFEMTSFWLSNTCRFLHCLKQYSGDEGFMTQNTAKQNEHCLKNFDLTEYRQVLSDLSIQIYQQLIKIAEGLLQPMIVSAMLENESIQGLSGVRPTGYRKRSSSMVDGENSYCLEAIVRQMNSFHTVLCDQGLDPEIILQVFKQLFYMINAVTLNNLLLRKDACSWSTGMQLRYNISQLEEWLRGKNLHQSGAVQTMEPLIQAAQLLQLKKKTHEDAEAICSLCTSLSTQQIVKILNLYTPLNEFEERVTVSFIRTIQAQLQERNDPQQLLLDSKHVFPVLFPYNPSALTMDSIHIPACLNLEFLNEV
UniProt P13020: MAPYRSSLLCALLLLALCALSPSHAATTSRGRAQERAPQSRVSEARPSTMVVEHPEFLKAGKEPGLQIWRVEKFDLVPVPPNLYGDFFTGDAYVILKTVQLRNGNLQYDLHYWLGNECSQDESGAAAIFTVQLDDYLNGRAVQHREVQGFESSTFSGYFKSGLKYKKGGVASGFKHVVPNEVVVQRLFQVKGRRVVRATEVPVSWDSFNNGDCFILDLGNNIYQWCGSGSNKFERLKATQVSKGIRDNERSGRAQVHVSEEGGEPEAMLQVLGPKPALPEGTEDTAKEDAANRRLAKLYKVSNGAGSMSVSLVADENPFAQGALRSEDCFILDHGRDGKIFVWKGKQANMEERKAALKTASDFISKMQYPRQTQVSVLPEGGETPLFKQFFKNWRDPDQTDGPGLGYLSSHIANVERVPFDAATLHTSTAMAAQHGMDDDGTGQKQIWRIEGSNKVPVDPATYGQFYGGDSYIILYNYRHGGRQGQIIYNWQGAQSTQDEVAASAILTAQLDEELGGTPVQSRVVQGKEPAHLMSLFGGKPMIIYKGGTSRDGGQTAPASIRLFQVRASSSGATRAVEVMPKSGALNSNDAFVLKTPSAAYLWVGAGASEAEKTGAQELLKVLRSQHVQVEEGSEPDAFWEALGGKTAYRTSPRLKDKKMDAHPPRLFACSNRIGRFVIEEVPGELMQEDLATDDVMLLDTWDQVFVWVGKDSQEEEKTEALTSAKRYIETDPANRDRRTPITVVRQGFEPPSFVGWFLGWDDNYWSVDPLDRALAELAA
UniProt Q9UQB8: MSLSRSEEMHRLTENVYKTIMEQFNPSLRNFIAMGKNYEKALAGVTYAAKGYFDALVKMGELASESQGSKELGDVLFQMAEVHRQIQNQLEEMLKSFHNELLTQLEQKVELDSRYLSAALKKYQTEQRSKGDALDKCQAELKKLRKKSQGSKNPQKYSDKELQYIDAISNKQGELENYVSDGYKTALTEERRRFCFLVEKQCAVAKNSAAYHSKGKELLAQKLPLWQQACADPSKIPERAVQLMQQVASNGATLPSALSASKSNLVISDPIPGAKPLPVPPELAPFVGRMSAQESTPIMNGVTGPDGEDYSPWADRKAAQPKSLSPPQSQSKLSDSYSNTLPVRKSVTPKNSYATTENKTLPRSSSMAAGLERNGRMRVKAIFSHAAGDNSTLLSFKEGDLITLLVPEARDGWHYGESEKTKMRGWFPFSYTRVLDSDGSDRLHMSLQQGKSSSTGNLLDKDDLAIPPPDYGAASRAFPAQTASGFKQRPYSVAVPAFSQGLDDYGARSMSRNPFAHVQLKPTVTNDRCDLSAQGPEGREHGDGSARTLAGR
UniProt P62962: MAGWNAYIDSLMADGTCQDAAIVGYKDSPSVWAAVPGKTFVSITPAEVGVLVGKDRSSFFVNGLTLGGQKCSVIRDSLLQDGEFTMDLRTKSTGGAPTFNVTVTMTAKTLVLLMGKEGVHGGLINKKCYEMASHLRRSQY

These are yes or no findings as the source states them, for the method shown. In cells and extracts the contact can be indirect. These calls come from enrichment with a bait or labelling near it, and not all partners need be listed. For some assays here: No binding means not detected with the bait.

One assay addresses GFP‐Eps8‐wild type (WT) (mouse (primer names: mEps8)) (UniProt Q08509). Kind of assay: condition: only cells treated with 50 μM CK-666 for 1 h; affinity purification with mass spectrometry; as a2, the sample of cells treated with 50 μM CK-666 for 1 h, compared directly with the nontreated (DMSO) sample.
Regarding “advillin (Avil) (from UniProt O88398 1-819)”, the binding result is listed as “no binding”.

The target is the same in the next assay. Kind of assay: affinity purification with mass spectrometry; whole-cell GFP-trap pull-down of GFP-Eps8-WT bait from transfected CAD cells treated with DMSO or 50 μM CK-666 for 1 h; on-bead digestion, LC-MS/MS; hits against cytosolic GFP-expressing cells; three preparations.
For the substance Arpc1b (from UniProt Q9WV32 1-372), the binding entry is reported as “binds”. Same read-out and setting: for Arpc5l (from UniProt Q9D898 1-153) the value was “binds”; for “Cdc42bpa (MRCKα) (from UniProt Q3UU96 1-1719)”, “binds”; for “IRSp53 (insulin receptor tyrosine kinase substrate protein of 53 kDa) (from UniProt Q8BKX1 1-535)”, “binds”. The same measure, in the same setting: for Myh10 (from UniProt Q61879 1-1976) the value was “binds”; for Myh11 (from UniProt O08638 1-1972), “binds”; for Myo1c (from UniProt Q9WTI7 1-1063), “binds”. Same read-out and setting: for Myo5a (from UniProt Q99104 1-1853) the value was “binds”; for Myo5b (from UniProt P21271 1-1818), “binds”. Myo6 (from UniProt Q64331 1-1262): the binding entry is on record as “binds”. Still for that read-out and setting: next, “advillin (Avil) (from UniProt O88398 1-819)”: “binds”.

For the substance “eplin (Lima 1) (from UniProt Q9ERG0 1-753)”, the binding result is reported as “binds”. The same measure, in the same setting: for gelsolin (Gsn) (from UniProt P13020) the value was “binds”.

The target in the next assay is IRSp53‐EGFP (UniProt Q9UQB8). Nature of the assay: affinity purification with mass spectrometry; whole-cell GFP-trap pull-down of IRSp53-EGFP bait from transfected CAD cells treated with DMSO or 50 μM CK-666 for 1 h; on-bead digestion, LC-MS/MS; hits against cytosolic GFP-expressing cells; five preparations.
In the case of Arpc1b (from UniProt Q9WV32 1-372), the binding entry is reported as “binds”. The same measure, in the same setting: next, Enah (from UniProt Q03173 1-802): “binds”. Same read-out and setting: next, Myh3 (from UniProt P13541 1-1940): “binds”; Sptbn5 (from UniProt A0A571BF02 1-3624): “binds”.

Consider gelsolin (Gsn) (from UniProt P13020), for which the binding result was “binds”. For “profilin (Pfn1) (from UniProt P62962 1-140)”, the binding entry is reported as “binds”.
